Measurements taken from PMC5074515 (PLoS ONE, 2016).
Structures can show the parent of a compound that is named as a salt. Where two headings read alike, the source gives them in different places.

Sequences of proteins named here, by UniProt entry; tags and fusion partners are left off. A change or cut given only in a name is not applied to a line headed by its entry.
UniProt P9WN95: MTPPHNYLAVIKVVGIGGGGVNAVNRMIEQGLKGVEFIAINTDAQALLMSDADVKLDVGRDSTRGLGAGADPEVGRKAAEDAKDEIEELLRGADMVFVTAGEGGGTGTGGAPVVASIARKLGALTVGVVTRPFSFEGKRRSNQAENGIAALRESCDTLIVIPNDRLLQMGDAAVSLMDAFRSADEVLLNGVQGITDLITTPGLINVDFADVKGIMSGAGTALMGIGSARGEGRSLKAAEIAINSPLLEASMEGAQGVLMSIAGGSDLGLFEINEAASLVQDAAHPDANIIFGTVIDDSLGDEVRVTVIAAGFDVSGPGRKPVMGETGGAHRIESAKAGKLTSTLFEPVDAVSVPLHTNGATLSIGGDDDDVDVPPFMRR

Molecular target: Mtb FtsZ (Mycobacterium tuberculosis, UniProt P9WN95)
Test: biochemical

| Structure (SMILES) | IC50 (mean ± standard deviation, at least three times per assay, NA = not active up to 100 μM, read-out: Mtb FtsZ Polymerization IC50) [µM] | IC50 [µM] |
| --- | --- | --- |
| COc1cc2c(c(OC)c1OC)-c1ccc(OC)c(=O)cc1[C@@H](NC(C)=O)CC2 [Compound 1, Colchicine] | 104 ± 2 | – |
| CC/C(=C(\c1ccccc1)c1ccc(OCCN(C)C)cc1)c1ccccc1 [Compound 11, Tamoxifen citrate] | – | 40.6 ± 17.9 |
